PubChem BioAssay AID1259308 – NCATS | 2017
Aim: 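Candidate targets for better recombinant protein yield in mammalian cells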 (primary screen). System: human HEK293 embryonic kidney cells stably expressing firefly luciferase (HEK-CMV-Luc2-Hygro). Knock-down reagent: single siRNA against human genes, 0.8 pmol siRNA per well. Duration: 72 h. Detection: 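Luciferase light (ONE-Glo) measured on one replicate plate set and viability (CellTiter-Glo) on the other, scaled to a negative control siRNA, with robust z-scores and luciferase per cell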. Scale: total luciferase, z-score and total luciferase, % of control: higher = more reporter protein produced. Hit rule: 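An siRNA counts as active if its total luciferase robust z-score exceeds 3; genes with two or more such siRNAs out of three were retested with fresh siRNAs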. Meaning of the calls: active = raised luciferase; inactive = no rise.
The whole screen tested about 59,000 reagents; this is an unselected part. Over the whole deposit, about 1,510 (2.6%) got an active call. 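Calls use total luciferase alone and ignore viability, so some active siRNAs may act by altering cell number.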 Unmarked entries are inactive. The numbers tell different reagents against one gene apart. Further read-outs or replicates are left out here.

UXS1 (UDP-glucuronate decarboxylase 1) #1: total luciferase, z-score = 0.385; total luciferase, % of control = 89.5
UXS1 (UDP-glucuronate decarboxylase 1) #2: total luciferase, z-score = 1.15; total luciferase, % of control = 105
UXS1 (UDP-glucuronate decarboxylase 1) #3: total luciferase, z-score = -0.123; total luciferase, % of control = 79.4
SCAF8 (SR-related CTD associated factor 8) #1: total luciferase, z-score = -0.548; total luciferase, % of control = 71
SCAF8 (SR-related CTD associated factor 8) #2: total luciferase, z-score = -0.331; total luciferase, % of control = 75.3
SCAF8 (SR-related CTD associated factor 8) #3: total luciferase, z-score = 1.72; total luciferase, % of control = 116
CXCL10 (C-X-C motif chemokine ligand 10) #1: total luciferase, z-score = 0.301; total luciferase, % of control = 87.9
CXCL10 (C-X-C motif chemokine ligand 10) #2: total luciferase, z-score = 1.44; total luciferase, % of control = 111
CXCL10 (C-X-C motif chemokine ligand 10) #3: total luciferase, z-score = 1.75; total luciferase, % of control = 117
RAB38 (RAB38, member RAS oncogene family) #1: total luciferase, z-score = 0.74; total luciferase, % of control = 96.6
RAB38 (RAB38, member RAS oncogene family) #2: total luciferase, z-score = -2.43; total luciferase, % of control = 33.5
RAB38 (RAB38, member RAS oncogene family) #3: total luciferase, z-score = -0.442; total luciferase, % of control = 73.1
LOC653698 #1: total luciferase, z-score = 1.42; total luciferase, % of control = 110
LOC653698 #2: total luciferase, z-score = 0.034; total luciferase, % of control = 82.6
LOC653698 #3: total luciferase, z-score = 1.88; total luciferase, % of control = 119
CALHM4 (calcium homeostasis modulator family member 4) #1: total luciferase, z-score = -2; total luciferase, % of control = 42.1
CALHM4 (calcium homeostasis modulator family member 4) #2: total luciferase, z-score = -0.156; total luciferase, % of control = 78.8
CALHM4 (calcium homeostasis modulator family member 4) #3: total luciferase, z-score = -1.12; total luciferase, % of control = 59.6
CAPZBP1 (CAPZB pseudogene 1) #1: total luciferase, z-score = 0.0942; total luciferase, % of control = 83.8
CAPZBP1 (CAPZB pseudogene 1) #2: total luciferase, z-score = 1.73; total luciferase, % of control = 116
CAPZBP1 (CAPZB pseudogene 1) #3: total luciferase, z-score = -2.44; total luciferase, % of control = 33.3
AP1AR #1: total luciferase, z-score = 0.467; total luciferase, % of control = 91.2
AP1AR #2: total luciferase, z-score = -1.07; total luciferase, % of control = 60.7
AP1AR #3: total luciferase, z-score = -0.364; total luciferase, % of control = 74.7
ASIC5 (acid sensing ion channel subunit family member 5) #1: total luciferase, z-score = 4.12 (active); total luciferase, % of control = 164
ASIC5 (acid sensing ion channel subunit family member 5) #2: total luciferase, z-score = -1.09; total luciferase, % of control = 60.2
ASIC5 (acid sensing ion channel subunit family member 5) #3: total luciferase, z-score = 0.685; total luciferase, % of control = 95.5
PTPRCAP #1: total luciferase, z-score = 0.415; total luciferase, % of control = 90.1
PTPRCAP #2: total luciferase, z-score = -0.634; total luciferase, % of control = 69.3
PTPRCAP #3: total luciferase, z-score = 1.31; total luciferase, % of control = 108
EHD4 (EH domain containing 4) #1: total luciferase, z-score = 0.806; total luciferase, % of control = 97.9
EHD4 (EH domain containing 4) #2: total luciferase, z-score = 0.184; total luciferase, % of control = 85.6
EHD4 (EH domain containing 4) #3: total luciferase, z-score = -0.286; total luciferase, % of control = 76.2
TMEM200B (transmembrane protein 200B) #1: total luciferase, z-score = 4.33 (active); total luciferase, % of control = 168
TMEM200B (transmembrane protein 200B) #2: total luciferase, z-score = 0.693; total luciferase, % of control = 95.7
TMEM200B (transmembrane protein 200B) #3: total luciferase, z-score = -1.43; total luciferase, % of control = 53.4
CHDH (choline dehydrogenase) #1: total luciferase, z-score = 2.2; total luciferase, % of control = 126
CHDH (choline dehydrogenase) #2: total luciferase, z-score = -0.574; total luciferase, % of control = 70.5
CHDH (choline dehydrogenase) #3: total luciferase, z-score = -0.099; total luciferase, % of control = 79.9
MPZL2 (myelin protein zero like 2) #1: total luciferase, z-score = 1.83; total luciferase, % of control = 118
MPZL2 (myelin protein zero like 2) #2: total luciferase, z-score = 0.0579; total luciferase, % of control = 83
MPZL2 (myelin protein zero like 2) #3: total luciferase, z-score = -0.3; total luciferase, % of control = 75.9
